Laboratory results published in PubChem BioAssay AID248 (DTP/NCI, 2004).
The list is a part of this screen's results and no random one: it is rich in T/C values a quarter to a half above the control, in often repeated tests (any T/C) and in doses without a T/C. Other doses and runs of a compound stand elsewhere. T/C: endpoint of the treated group in % of that of the vehicle group. Some doses have a count of surviving animals in place of a T/C: the source holds a T/C of zero for them, seemingly a mark for toxic or unscored doses. Some doses without a T/C left all or most animals alive at the check, yet need not have been tolerated: survival well below the control is almost never listed, so the zero probably covers shortened survival too. Survivors were counted at the toxicity check, usually on the fifth day, unless a day is given; later deaths do not show. Schedule codes are those of the source, taken here to give the interval after Q, in days (D) or hours (H), and the number of doses after X. Some schedules carry Z or #; the key to these is not given. Where survival is the endpoint, the PubChem record calls one and a half times the control and up active, and a quarter to a half above the control has no call in these data; cut-offs in other NCI protocols can differ. Some entries were tested several times; the values are given in rising order.

Tested on: L1210 leukemia ip in BDF1 mice, survival T/C
Assay: NCI In Vivo Anticancer Drug Screen. Data for tumor model L1210 Leukemia (intraperitoneal) in B6D2F1 (BDF1) mice
Conditions: T/C endpoint: mean survival time, higher T/C = longer survival
[1] = dose: 400.0 mg/kg/injection, schedule: Q04DX003 (ip), vehicle: saline with Tween-80
[2] = dose: 200.0 mg/kg/injection, schedule: Q04DX003 (ip), vehicle: saline
[3] = dose: 400.0 mg/kg/injection, schedule: Q01DX001 (ip), vehicle: saline
[4] = dose: 400.0 mg/kg/injection, schedule: Q04DX002 (ip), vehicle: Klucel (hydroxypropylcellulose) (HPC)
[5] = dose: 400.0 mg/kg/injection, schedule: Q04DX003 (ip), vehicle: saline
[6] = dose: 200.0 mg/kg/injection, schedule: Q04DX002 (ip), vehicle: Klucel (hydroxypropylcellulose) (HPC)

Question: `Nc1nccc(NC(c2ccccc2)c2ccccc2)c1N` was tested. Which survivor count (dose: 25.0 mg/kg/injection, schedule: Q01DX009 (ip), vehicle: DMSO) did it give?
Answer: 3 of 6

Question: What about the survivor count (dose: 50.0 mg/kg/injection, schedule: Q01DX009 (ip), vehicle: DMSO) of the same compound?
Answer: 2 of 6

Question: And the survivor count (dose: 100.0 mg/kg/injection, schedule: Q01DX001 (ip), vehicle: other)?
Answer: 1 of 6

Question: What about the survivor count (dose: 200.0 mg/kg/injection, schedule: Q01DX001 (ip), vehicle: other) of the same compound?
Answer: 0 of 6

Question: And the survivor count (dose: 400.0 mg/kg/injection, schedule: Q01DX001 (ip), vehicle: other)?
Answer: 0 of 6

Question: `NC(N)=N/N=C(\c1ccc(Br)cc1)C1CC1` was tested. Which survivor count (dose: 120.0 mg/kg/injection, schedule: Q01DX Z (ip), vehicle: carboxymethylcellulose (CMC)) did it give?
Answer: 0 of 6

Question: And the survivor count (dose: 480.0 mg/kg/injection, schedule: Q01DX Z (oral), vehicle: carboxymethylcellulose (CMC))?
Answer: 0 of 6

Question: What about the survivor count (dose: 960.0 mg/kg/injection, schedule: Q01DX Z (oral), vehicle: carboxymethylcellulose (CMC)) of the same compound?
Answer: 1 of 6

Question: `CCOC(=O)c1cnc(SC)nc1N(C)C` was tested. Which survivor count [1] did it give?
Answer: 2 of 6

Question: Which results are given for `Nc1ncn(C2CC(O)C(CO)O2)c(=O)n1` (stereo not drawn)?
Answer: T/C (dose: 0.03 mg/kg/injection, schedule: Q01DX005 (ip), vehicle: saline): 148 % of control; T/C (dose: 0.08 mg/kg/injection, schedule: Q01DX005 (ip), vehicle: saline): 141 % of control; T/C (dose: 0.19 mg/kg/injection, schedule: Q01DX005 (ip), vehicle: saline): 149 % of control; T/C (dose: 0.39 mg/kg/injection, schedule: Q01DX005 (ip), vehicle: saline): 131 % of control; survivor count (dose: 6.25 mg/kg/injection, schedule: Q01DX005 (ip), vehicle: saline): 6 of 6; survivor count (dose: 12.5 mg/kg/injection, schedule: Q01DX005 (ip), vehicle: saline): 6 of 6; survivor count (dose: 25.0 mg/kg/injection, schedule: Q01DX005 (ip), vehicle: saline): 6 of 6; survivor count (dose: 50.0 mg/kg/injection, schedule: Q01DX005 (ip), vehicle: saline): 6 of 6; survivor count (dose: 100.0 mg/kg/injection, schedule: Q01DX005 (ip), vehicle: saline): 5 of 6; T/C (dose: 133.0 mg/kg/injection, schedule: Q04DX003 (ip), vehicle: saline): 143 % of control; T/C (dose: 200.0 mg/kg/injection, schedule: Q01DX001 (ip), vehicle: saline): 132 % of control; survivor count (dose: 200.0 mg/kg/injection, schedule: Q01DX005 (ip), vehicle: saline): 5 of 6; T/C [2]: 148 % of control; survivor count (dose: 300.0 mg/kg/injection, schedule: Q01DX005 (ip), vehicle: saline): 5 of 6; survivor count [3]: 6 of 6; survivor count (dose: 600.0 mg/kg/injection, schedule: Q01DX001 (ip), vehicle: saline): 6 of 6; T/C (dose: 5.7 micrograms/kg/injection, schedule: Q01DX005 (ip), vehicle: saline): 141 % of control; T/C (dose: 8.5 micrograms/kg/injection, schedule: Q01DX005 (ip), vehicle: saline): 139 % of control

Question: Which survivor count [4] does the source give for `O=C(O)c1cc(Cl)c(Br)c(Cl)c1` here?
Answer: 3 of 3

Question: How did the survivor count (dose: 100.0 mg/kg/injection, schedule: Q04DX003 (ip), vehicle: saline) turn out when `O=S1(=O)CC23CCC2(COC3)C1` (stereo not drawn) was run?
Answer: 0 of 6

Question: What about the survivor count [2] of the same compound?
Answer: 0 of 6

Question: And the survivor count [5]?
Answer: 0 of 6

Question: With `O=S(=O)(O)C(O)CC(c1ccccc1)S(=O)(=O)O` (stereo not drawn) as the compound, how does the survivor count [6] read?
Answer: 3 of 3

Question: With `CCNCCCN` as the compound, how does the survivor count [2] read?
Answer: 4 of 6

Question: What about the survivor count [5] of the same compound?
Answer: 0 of 6

Question: Which T/C (dose: 26.0 mg/kg/injection, schedule: Q01DX Z (ip), vehicle: carboxymethylcellulose (CMC)) does the source give for `CC(=O)OCC1OC(n2cnc3c(=S)nc[nH]c32)C(OC(C)=O)C1OC(C)=O` (stereo not drawn) here?
Answer: 134 % of control

Question: And the T/C (dose: 60.0 mg/kg/injection, schedule: Q01DX Z (ip), vehicle: carboxymethylcellulose (CMC))?
Answer: 142 % of control

Question: What about the T/C (dose: 90.0 mg/kg/injection, schedule: Q01DX Z (ip), vehicle: carboxymethylcellulose (CMC)) of the same compound?
Answer: 136 % of control

Question: How did the survivor count (dose: 100.0 mg/kg/injection, schedule: Q01DX001 (ip), vehicle: carboxymethylcellulose (CMC)) turn out when `Nc1sc(C(=O)O)cc1[N+](=O)[O-]` was run?
Answer: 4 of 4

Question: For `C=C(C)COc1c(C)c(C)c(OCC(=C)C)c(C)c1C`, which survivor count (dose: 200.0 mg/kg/injection, schedule: Q01DX001 (ip), vehicle: DMSO) is on record?
Answer: 6 of 6

Question: Which results are given for `O=C(O)c1ccccc1/C=N/N1C(=O)CSC1=S`?
Answer: survivor count (dose: 15.0 mg/kg/injection, schedule: Q01DX001 (ip), vehicle: carboxymethylcellulose (CMC)): 0 of 6; survivor count (dose: 30.0 mg/kg/injection, schedule: Q01DX001 (ip), vehicle: carboxymethylcellulose (CMC)): 0 of 6; survivor count (dose: 60.0 mg/kg/injection, schedule: Q01DX001 (ip), vehicle: carboxymethylcellulose (CMC)): 0 of 6; survivor count (dose: 75.0 mg/kg/injection, schedule: Q01DX001 (ip), vehicle: carboxymethylcellulose (CMC)): 0 of 6; survivor count (dose: 150.0 mg/kg/injection, schedule: Q01DX001 (ip), vehicle: carboxymethylcellulose (CMC)): 0 of 6; survivor count (dose: 300.0 mg/kg/injection, schedule: Q01DX001 (ip), vehicle: carboxymethylcellulose (CMC)): 0 of 6

Question: For `CN=C1N[N+]2=C(C)CCCC2(C)S1` (stereo not drawn), which survivor count [5] is on record?
Answer: 0 of 4

Question: `CC1CN=C(c2cccc(NC(=O)Nc3ccc(NC(=O)Nc4cccc(C5=NCC(C)N5)c4)cc3)c2)N1` (stereo not drawn) was tested. Which T/C (dose: 9.0 mg/kg/injection, schedule: Q01DX Z (ip), vehicle: carboxymethylcellulose (CMC)) did it give?
Answer: 128 % of control

Question: What about the T/C (dose: 18.0 mg/kg/injection, schedule: Q01DX Z (ip), vehicle: carboxymethylcellulose (CMC)) of the same compound?
Answer: 129 and 138 % of control

Question: What about the T/C (dose: 54.0 mg/kg/injection, schedule: Q01DX Z (ip), vehicle: carboxymethylcellulose (CMC)) of the same compound?
Answer: 139 % of control

Question: What about the survivor count (dose: 144.0 mg/kg/injection, schedule: Q01DX Z (ip), vehicle: carboxymethylcellulose (CMC)) of the same compound?
Answer: 6 of 6

Question: Which survivor count (dose: 200.0 mg/kg/injection, schedule: Q04DX003 (ip), vehicle: saline with Tween-80) does the source give for `Cc1ccc(N2CCOC2=O)cc1N1CCOC1=O` here?
Answer: 6 of 6

Question: And the survivor count [1]?
Answer: 6 of 6

Question: `O=C(O)C1CCCCC1/C=N/Nc1ccc([N+](=O)[O-])cc1[N+](=O)[O-]` (stereo not drawn) was tested. Which survivor count (dose: 100.0 mg/kg/injection, schedule: Q01DX001 (ip), vehicle: saline) did it give?
Answer: 6 of 6

Question: With `COC(=O)C1(C)COP(=O)(O)OC1` (stereo not drawn) as the compound, how does the survivor count [3] read?
Answer: 1 of 4

Question: With `CCC1(C)CC(=O)NC(=O)C1` as the compound, how does the survivor count (dose: 20.0 mg/kg/injection, schedule: Q04DX003 (ip), vehicle: saline with Tween-80) read?
Answer: 5 of 6

Question: What about the survivor count (dose: 30.0 mg/kg/injection, schedule: Q04DX003 (ip), vehicle: saline) of the same compound?
Answer: 0 of 4

Question: And the survivor count (dose: 60.0 mg/kg/injection, schedule: Q04DX003 (ip), vehicle: saline)?
Answer: 0 of 4

Question: `O=C(C[n+]1cccc(/C=N\O)c1)c1ccc(-c2ccc(C(=O)C[n+]3cccc(/C=N\O)c3)cc2)cc1` was tested. Which survivor count (dose: 3.0 mg/kg/injection, schedule: Q01DX009 (ip), vehicle: Klucel (hydroxypropylcellulose) (HPC)) did it give?
Answer: 3 of 3

Question: And the T/C (dose: 6.0 mg/kg/injection, schedule: Q01DX009 (ip), vehicle: Klucel (hydroxypropylcellulose) (HPC))?
Answer: 129 % of control

Question: What about the survivor count (dose: 25.0 mg/kg/injection, schedule: Q01DX009 (ip), vehicle: Klucel (hydroxypropylcellulose) (HPC)) of the same compound?
Answer: 1 of 3

Question: And the survivor count (dose: 50.0 mg/kg/injection, schedule: Q01DX009 (ip), vehicle: Klucel (hydroxypropylcellulose) (HPC))?
Answer: 0 of 3

Question: And the survivor count (dose: 100.0 mg/kg/injection, schedule: Q04DX002 (ip), vehicle: Klucel (hydroxypropylcellulose) (HPC))?
Answer: 0 of 3

Question: And the survivor count [6]?
Answer: 0 of 3

Question: What about the survivor count [4] of the same compound?
Answer: 0 of 3

Question: Which survivor count (dose: 400.0 mg/kg/injection, schedule: Q04DX002 (ip), vehicle: saline) does the source give for `NC(=O)C1C2C=CC(O2)C1C(N)=O` (stereo not drawn) here?
Answer: 1 of 3

Question: Which survivor count (dose: 75.0 mg/kg/injection, schedule: Q01DX001 (ip), vehicle: saline) does the source give for `N#CCOC(=O)c1ccccc1` here?
Answer: 0 of 6

Question: What about the survivor count (dose: 150.0 mg/kg/injection, schedule: Q01DX001 (ip), vehicle: saline) of the same compound?
Answer: 0 of 6

Question: And the survivor count (dose: 300.0 mg/kg/injection, schedule: Q01DX001 (ip), vehicle: saline)?
Answer: 0 of 6
